# Data: paper PMC6556580 (The Journal of Biological Chemistry, 2019)
# Results are given in words; binding and its absence hold for the method and conditions named. Some entries that bind do so weakly or less than the wild type.
# Experiments:
# [1] = molecular target: SYCE3 W41A (human) (UniProt A1L190); assay: SEC-MALS; samples at 0.5–20 mg/ml in 20 mM Tris pH 8.0, 150 mM KCl, 2 mM DTT; Superdex 200 Increase 10/300 GL; concentration series and enriched species; self-association: dimer and higher oligomers of dimers; both purified
# [2] = molecular target: SYCE3 Y44A (human) (UniProt A1L190); assay: as above
# [3] = molecular target: Mouse SYCE3 (crystal structure, rebuilt and re-refined) (mouse) (UniProt B5KM66); assay: crystal structure; mouse SYCE3, rebuilt and re-refined against the deposited data of PDB 4R3Q to 1.90 Å; deposited as 6H86; both purified
binder,measurement,setting,value
"SYCE3 W41A (protein, UniProt A1L190 1-88) MDDADPEERNYDNMLKMLSDLNKDLEKLLEEMEKISVQATAMAYDMVVMRTNPTLAESMRRLEDAFVNCKEEMEKNWQELLHETKQRL",binding,[1],binds
"SYCE3 Y44A (protein, UniProt A1L190 1-88) MDDADPEERNYDNMLKMLSDLNKDLEKLLEEMEKISVQATWMAADMVVMRTNPTLAESMRRLEDAFVNCKEEMEKNWQELLHETKQRL",binding,[2],binds
"Mouse SYCE3 (crystal structure, rebuilt and re-refined) (protein, UniProt B5KM66 1-88) MADSDPGERSYDNMLKMLSDLNKDLEKLLEEMEKISVQATWMAYDMVVMRTNPTLAESMRRLEDAFLNCKEEMEKNWQELLTETKRKQ",binding,[3],binds
